# Source: PubChem BioAssay AID1224830 (NIAID, 2016)
# Purpose: 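Genes whose knock-down alters the TNF-alpha reporter response to LPS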 (primary screen)
# System: human THP-1 monocytic leukaemia cells, TNF dual-luciferase reporter clone, PMA-differentiated to macrophage-like cells
# Reagent: siRNA pool against human genes, 50 nM
# Duration: LPS for 4 h, given about 3 days after siRNA transfection
# Challenge: bacterial LPS (TLR4 ligand), 10 ng/ml
# Detection: 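Ratio of firefly to renilla light, scaled to the plate median and expressed as a robust z-score per replicate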
# Direction: TNF reporter robust z-score: higher = stronger TNF reporter response to LPS
# Rule for the call: 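Each well counts as active if its z-score is over 2.8 or under -1.5; controls are left without a call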
# In all, the deposit lists about 18,000 reagents; shown is an unselected part. Of all reagents, about 2,900 (16%) are marked active. 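Calls are made per well; low scores hint the gene aids the LPS response, high scores that it dampens it.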 Repeated entries: four replicate wells of each siRNA pool.
gene knocked down,TNF reporter robust z-score,Call
NPTX2 (neuronal pentraxin 2),1.66,inactive
NPTX2 (neuronal pentraxin 2),0.43,inactive
NPTX2 (neuronal pentraxin 2),0.22,inactive
NPTX2 (neuronal pentraxin 2),1.16,inactive
HTRA1 (HtrA serine peptidase 1),-0.25,inactive
HTRA1 (HtrA serine peptidase 1),0.3,inactive
HTRA1 (HtrA serine peptidase 1),1.88,inactive
HTRA1 (HtrA serine peptidase 1),0.56,inactive
BPGM (bisphosphoglycerate mutase),2,inactive
BPGM (bisphosphoglycerate mutase),2.18,inactive
BPGM (bisphosphoglycerate mutase),0.1,inactive
BPGM (bisphosphoglycerate mutase),0.53,inactive
TET2 (tet methylcytosine dioxygenase 2),-0.23,inactive
TET2 (tet methylcytosine dioxygenase 2),2.17,inactive
TET2 (tet methylcytosine dioxygenase 2),2.3,inactive
TET2 (tet methylcytosine dioxygenase 2),3.31,active
CCDC57 (coiled-coil domain containing 57),0.34,inactive
CCDC57 (coiled-coil domain containing 57),-0.49,inactive
CCDC57 (coiled-coil domain containing 57),-0.23,inactive
CCDC57 (coiled-coil domain containing 57),0.85,inactive
CAV3 (caveolin 3),-1.48,inactive
CAV3 (caveolin 3),-1.19,inactive
CAV3 (caveolin 3),-1.51,active
CAV3 (caveolin 3),-1.38,inactive
WEE1 (WEE1 G2 checkpoint kinase),1.02,inactive
WEE1 (WEE1 G2 checkpoint kinase),0.83,inactive
WEE1 (WEE1 G2 checkpoint kinase),0.28,inactive
WEE1 (WEE1 G2 checkpoint kinase),-1.07,inactive
TSPY2 (testis specific protein Y-linked 2),-0.3,inactive
TSPY2 (testis specific protein Y-linked 2),0.07,inactive
TSPY2 (testis specific protein Y-linked 2),-0.13,inactive
TSPY2 (testis specific protein Y-linked 2),-0.01,inactive
KREMEN2 (kringle containing transmembrane protein 2),-0.01,inactive
KREMEN2 (kringle containing transmembrane protein 2),1.31,inactive
KREMEN2 (kringle containing transmembrane protein 2),0.16,inactive
KREMEN2 (kringle containing transmembrane protein 2),1.36,inactive
DYNC1H1 (dynein cytoplasmic 1 heavy chain 1),-0.76,inactive
DYNC1H1 (dynein cytoplasmic 1 heavy chain 1),-1.39,inactive
DYNC1H1 (dynein cytoplasmic 1 heavy chain 1),-1.67,active
DYNC1H1 (dynein cytoplasmic 1 heavy chain 1),-0.53,inactive
GLDN (gliomedin),-0.55,inactive
GLDN (gliomedin),-1.02,inactive
GLDN (gliomedin),-0.61,inactive
GLDN (gliomedin),0.46,inactive
BEST4 (bestrophin 4),-0.49,inactive
BEST4 (bestrophin 4),0.13,inactive
BEST4 (bestrophin 4),-1.08,inactive
BEST4 (bestrophin 4),-0.34,inactive
EXOSC10 (exosome component 10),-1.13,inactive
EXOSC10 (exosome component 10),-1.5,inactive
EXOSC10 (exosome component 10),-0.87,inactive
EXOSC10 (exosome component 10),-0.19,inactive
ANTXR2 (ANTXR cell adhesion molecule 2),-0.45,inactive
ANTXR2 (ANTXR cell adhesion molecule 2),-1,inactive
ANTXR2 (ANTXR cell adhesion molecule 2),-1.24,inactive
ANTXR2 (ANTXR cell adhesion molecule 2),0.38,inactive
"ALG8 (ALG8 alpha-1,3-glucosyltransferase)",0.64,inactive
"ALG8 (ALG8 alpha-1,3-glucosyltransferase)",0.38,inactive
"ALG8 (ALG8 alpha-1,3-glucosyltransferase)",-0.55,inactive
"ALG8 (ALG8 alpha-1,3-glucosyltransferase)",0.4,inactive
OTP (orthopedia homeobox),2.26,inactive
OTP (orthopedia homeobox),0.03,inactive
OTP (orthopedia homeobox),-0.61,inactive
TMEM190 (transmembrane protein 190),0.85,inactive
TMEM190 (transmembrane protein 190),1.64,inactive
TMEM190 (transmembrane protein 190),-0.05,inactive
TMEM190 (transmembrane protein 190),0.53,inactive
ARMC7 (armadillo repeat containing 7),-0.3,inactive
ARMC7 (armadillo repeat containing 7),0.93,inactive
ARMC7 (armadillo repeat containing 7),1.15,inactive
ARMC7 (armadillo repeat containing 7),1.61,inactive
CNFN (cornifelin),-0.66,inactive
CNFN (cornifelin),0.46,inactive
CNFN (cornifelin),-0.69,inactive
CNFN (cornifelin),0.35,inactive
RPL35 (ribosomal protein L35),0.43,inactive
RPL35 (ribosomal protein L35),1.91,inactive
RPL35 (ribosomal protein L35),-0.04,inactive
RPL35 (ribosomal protein L35),1.26,inactive
ILK (integrin linked kinase),3.41,active
ILK (integrin linked kinase),1.58,inactive
ILK (integrin linked kinase),0.51,inactive
ILK (integrin linked kinase),0.89,inactive
MTHFD2,-0.66,inactive
MTHFD2,0.63,inactive
MTHFD2,0.22,inactive
MTHFD2,0.07,inactive
OR2AT4 (olfactory receptor family 2 subfamily AT member 4),-1.08,inactive
OR2AT4 (olfactory receptor family 2 subfamily AT member 4),-0.88,inactive
OR2AT4 (olfactory receptor family 2 subfamily AT member 4),-1.32,inactive
OR2AT4 (olfactory receptor family 2 subfamily AT member 4),-0.55,inactive
OPRD1 (opioid receptor delta 1),1.33,inactive
OPRD1 (opioid receptor delta 1),-0.09,inactive
OPRD1 (opioid receptor delta 1),0,inactive
OPRD1 (opioid receptor delta 1),0.03,inactive

The list goes on; the last 11 above are carried over.
gene knocked down,TNF reporter robust z-score,Call
MTHFD2,0.63,inactive
MTHFD2,0.22,inactive
MTHFD2,0.07,inactive
OR2AT4 (olfactory receptor family 2 subfamily AT member 4),-1.08,inactive
OR2AT4 (olfactory receptor family 2 subfamily AT member 4),-0.88,inactive
OR2AT4 (olfactory receptor family 2 subfamily AT member 4),-1.32,inactive
OR2AT4 (olfactory receptor family 2 subfamily AT member 4),-0.55,inactive
OPRD1 (opioid receptor delta 1),1.33,inactive
OPRD1 (opioid receptor delta 1),-0.09,inactive
OPRD1 (opioid receptor delta 1),0,inactive
OPRD1 (opioid receptor delta 1),0.03,inactive
SLC12A2,-0.8,inactive
SLC12A2,-0.58,inactive
SLC12A2,-0.61,inactive
SLC12A2,-0.11,inactive
HSPB1 (heat shock protein family B (small) member 1),1.33,inactive
HSPB1 (heat shock protein family B (small) member 1),2.58,inactive
HSPB1 (heat shock protein family B (small) member 1),1.6,inactive
HSPB1 (heat shock protein family B (small) member 1),2.02,inactive
RPS24 (ribosomal protein S24),0.3,inactive
RPS24 (ribosomal protein S24),0.73,inactive
RPS24 (ribosomal protein S24),0.66,inactive
RPS24 (ribosomal protein S24),0.8,inactive
LOXL1 (lysyl oxidase like 1),-0.8,inactive
LOXL1 (lysyl oxidase like 1),-0.68,inactive
LOXL1 (lysyl oxidase like 1),-0.91,inactive
LOXL1 (lysyl oxidase like 1),0.52,inactive
BAMBI (BMP and activin membrane bound inhibitor),-0.87,inactive
BAMBI (BMP and activin membrane bound inhibitor),-0.69,inactive
BAMBI (BMP and activin membrane bound inhibitor),-1.31,inactive
BAMBI (BMP and activin membrane bound inhibitor),-0.4,inactive
RIMKLA (ribosomal modification protein rimK like family member A),-0.8,inactive
RIMKLA (ribosomal modification protein rimK like family member A),-0.31,inactive
RIMKLA (ribosomal modification protein rimK like family member A),-0.83,inactive
RIMKLA (ribosomal modification protein rimK like family member A),0.22,inactive
SNUPN (snurportin 1),-0.69,inactive
SNUPN (snurportin 1),-0.75,inactive
SNUPN (snurportin 1),-0.38,inactive
SNUPN (snurportin 1),-0.36,inactive
INKA1 (inka box actin regulator 1),0.48,inactive
INKA1 (inka box actin regulator 1),-0.42,inactive
INKA1 (inka box actin regulator 1),-0.6,inactive
INKA1 (inka box actin regulator 1),0.24,inactive
NPBWR1 (neuropeptides B and W receptor 1),4.82,active
NPBWR1 (neuropeptides B and W receptor 1),-0.79,inactive
NPBWR1 (neuropeptides B and W receptor 1),-0.25,inactive
NPBWR1 (neuropeptides B and W receptor 1),0.67,inactive
MYH4 (myosin heavy chain 4),-0.6,inactive
MYH4 (myosin heavy chain 4),-0.03,inactive
MYH4 (myosin heavy chain 4),-0.39,inactive
MYH4 (myosin heavy chain 4),1.72,inactive
PLA2G4C (phospholipase A2 group IVC),1.21,inactive
PLA2G4C (phospholipase A2 group IVC),1.7,inactive
PLA2G4C (phospholipase A2 group IVC),0.79,inactive
PLA2G4C (phospholipase A2 group IVC),0.94,inactive
TPRG1L (tumor protein p63 regulated 1 like),0.03,inactive
TPRG1L (tumor protein p63 regulated 1 like),-0.82,inactive
TPRG1L (tumor protein p63 regulated 1 like),-0.68,inactive
TPRG1L (tumor protein p63 regulated 1 like),-1.13,inactive
